Measurements reported in PubChem BioAssay AID1224830 (NIAID, 2016)
The deposit covers about 18,000 reagents; this is an unselected part. Over the whole deposit, about 2,900 (16%) got an active call. 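Calls are made per well; low scores hint the gene aids the LPS response, high scores that it dampens it.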 Repeated entries: four replicate wells of each siRNA pool.

Test: 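Genes whose knock-down alters the TNF-alpha reporter response to LPS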 (primary screen)
Cell system: human THP-1 monocytic leukaemia cells, TNF dual-luciferase reporter clone, PMA-differentiated to macrophage-like cells
Reagent: siRNA pool against human genes, 50 nM
Duration: LPS for 4 h, given about 3 days after siRNA transfection
Challenge: bacterial LPS (TLR4 ligand), 10 ng/ml
Read-out: 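TNF firefly reporter luminescence divided by renilla, normalised to the plate median, then turned into a robust z-score for each replicate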
Reading the numbers: TNF reporter robust z-score: higher = stronger TNF reporter response to LPS
Rule for the call: 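a well is active when its z-score exceeds 2.8 or falls below -1.5; control wells carry no call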

LRCH4 [SID315449800] | TNF reporter robust z-score = 0.7; activity call = inactive
LRCH4 [SID315449800] | TNF reporter robust z-score = 0.14; activity call = inactive
LRCH4 [SID315449800] | TNF reporter robust z-score = -0.63; activity call = inactive
LRCH4 [SID315449800] | TNF reporter robust z-score = 0.44; activity call = inactive
ALDH1A1 [SID315447266] | TNF reporter robust z-score = -0.78; activity call = inactive
ALDH1A1 [SID315447266] | TNF reporter robust z-score = -0.75; activity call = inactive
ALDH1A1 [SID315447266] | TNF reporter robust z-score = 0.75; activity call = inactive
ALDH1A1 [SID315447266] | TNF reporter robust z-score = 0.86; activity call = inactive
LCMT1 [SID315456720] | TNF reporter robust z-score = 1.73; activity call = inactive
LCMT1 [SID315456720] | TNF reporter robust z-score = -0.26; activity call = inactive
LCMT1 [SID315456720] | TNF reporter robust z-score = -0.16; activity call = inactive
LCMT1 [SID315456720] | TNF reporter robust z-score = -0.61; activity call = inactive
CD300E [SID315464133] | TNF reporter robust z-score = 0.92; activity call = inactive
CD300E [SID315464133] | TNF reporter robust z-score = 0.31; activity call = inactive
CD300E [SID315464133] | TNF reporter robust z-score = -0.23; activity call = inactive
CD300E [SID315464133] | TNF reporter robust z-score = 0.22; activity call = inactive
MAP4K1 [SID315454672] | TNF reporter robust z-score = -1.24; activity call = inactive
MAP4K1 [SID315454672] | TNF reporter robust z-score = -0.34; activity call = inactive
MAP4K1 [SID315454672] | TNF reporter robust z-score = -2.01; activity call = active
MAP4K1 [SID315454672] | TNF reporter robust z-score = 0.18; activity call = inactive
UBA5 [SID315459532] | TNF reporter robust z-score = -0.23; activity call = inactive
UBA5 [SID315459532] | TNF reporter robust z-score = -1.09; activity call = inactive
UBA5 [SID315459532] | TNF reporter robust z-score = -0.75; activity call = inactive
UBA5 [SID315459532] | TNF reporter robust z-score = -0.32; activity call = inactive
OTUB2 [SID315459138] | TNF reporter robust z-score = 0.51; activity call = inactive
OTUB2 [SID315459138] | TNF reporter robust z-score = 0.65; activity call = inactive
OTUB2 [SID315459138] | TNF reporter robust z-score = -0.08; activity call = inactive
OTUB2 [SID315459138] | TNF reporter robust z-score = 1.35; activity call = inactive
YY2 [SID315464839] | TNF reporter robust z-score = 0.91; activity call = inactive
YY2 [SID315464839] | TNF reporter robust z-score = 0.68; activity call = inactive
YY2 [SID315464839] | TNF reporter robust z-score = 0.47; activity call = inactive
YY2 [SID315464839] | TNF reporter robust z-score = 1.62; activity call = inactive
BRS3 [SID315447588] | TNF reporter robust z-score = 0.55; activity call = inactive
BRS3 [SID315447588] | TNF reporter robust z-score = 0.6; activity call = inactive
BRS3 [SID315447588] | TNF reporter robust z-score = -0.4; activity call = inactive
BRS3 [SID315447588] | TNF reporter robust z-score = 1.65; activity call = inactive
CXCL16 [SID315458618] | TNF reporter robust z-score = -0.74; activity call = inactive
CXCL16 [SID315458618] | TNF reporter robust z-score = 0.27; activity call = inactive
CXCL16 [SID315458618] | TNF reporter robust z-score = -0.37; activity call = inactive
CXCL16 [SID315458618] | TNF reporter robust z-score = 0.59; activity call = inactive
MRPL51 [SID315456589] | TNF reporter robust z-score = 0.81; activity call = inactive
MRPL51 [SID315456589] | TNF reporter robust z-score = -0.1; activity call = inactive
MRPL51 [SID315456589] | TNF reporter robust z-score = 0.15; activity call = inactive
MRPL51 [SID315456589] | TNF reporter robust z-score = 0.27; activity call = inactive
COG8 [SID315460345] | TNF reporter robust z-score = -0.75; activity call = inactive
COG8 [SID315460345] | TNF reporter robust z-score = -0.4; activity call = inactive
COG8 [SID315460345] | TNF reporter robust z-score = 0.05; activity call = inactive
COG8 [SID315460345] | TNF reporter robust z-score = -0.28; activity call = inactive
